In patent publication US9029295B2, “Pyridazinone compound and herbicide and noxious arthropod controlling agent comprising it” (Sumitomo Chemical Company, Limited, priority 2010, dated 2015):
Some results were stated once for a whole list of compounds, not compound by compound.

Legend:
Assay type in all cases: in vivo
Echinochloa crus-galli = assay: Post-emergence treatment test in dry field (Test Example 1-1); settings: treatment amount 1,000 g/10,000 m^2; sprayed onto whole plants at first to second leaf stage; twenty days after treatment; 0 = no effect, 10 = complete death
Galium aparine = assay: Post-emergence treatment test in dry field (Test Example 1-2); settings: treatment amount 1,000 g/10,000 m^2; sprayed onto whole plants at first to second leaf stage; twenty days after treatment; 0 = no effect, 10 = complete death
Lolium multiflorum = assay: Pre-emergence treatment test in dry field (Test Example 2-1); settings: treatment amount 1,000 g/10,000 m^2; sprayed onto soil surface after sowing; twenty days after treatment; 0 = no effect, 10 = complete death

CCc1cc(CC)c(-c2c(O)c(C#N)nn(C)c2=O)c(CC)c1 [Compound (I-28-2), 4-(2,4,6-triethylphenyl)-6-cyano-5-hydroxy-2-methyl-3(2H)-pyridazinone]
≥ 9: controlling effect of the compound on Echinochloa crus-galli, visually evaluated, rated in 11 levels from 0 to 10 (Echinochloa crus-galli) | controlling effect of the compound on Galium aparine, visually evaluated, rated in 11 levels from 0 to 10 (Galium aparine) | controlling effect of the compound on Lolium multiflorum, visually evaluated, rated in 11 levels from 0 to 10 (Lolium multiflorum)

CCc1cc(C)cc(CC)c1-c1c(O)c(CC#N)nn(C)c1=O [Compound (I-31), 4-(2,6-diethyl-4-methylphenyl)-6-cyanomethyl-5-hydroxy-2-methyl-3(2H)-pyridazinone]
≥ 9: controlling effect of the compound on Echinochloa crus-galli, visually evaluated, rated in 11 levels from 0 to 10 (Echinochloa crus-galli) | controlling effect of the compound on Galium aparine, visually evaluated, rated in 11 levels from 0 to 10 (Galium aparine) | controlling effect of the compound on Lolium multiflorum, visually evaluated, rated in 11 levels from 0 to 10 (Lolium multiflorum)
